The values below come from patent US9046767B2, “Photoacid generator, photoresist, coated substrate, and method of forming an electronic device” (ROHM AND HAAS ELECTRONIC MATERIALS LLC, priority 2013, dated 2015).

A short description of data set [1]: Lithographic evaluation using negative tone development. The following applies: photoresist with polymer A3, immersion ArF, n-butyl acetate developer.
A short description of data set [2]: Lithographic evaluation using positive tone development. The settings on record: photoresist with polymer A2, 193 nm, 90 nm L/S pattern, 0.26 N TMAH developer.

In the case of “Triphenylsulfonium 1,1-difluoro-2-((-3-hydroxyadamantan-1-yl)methoxy)-2-oxoethanesulfonate [C. PAG 2, reference compound]”, in data set [1], the “CDU (Critical Dimension Uniformity)” value is on record as 7.12 nm, the “EL (exposure latitude)” value is reported as 9.9% and the “Es (optimum energy to print 60/90 nm contact holes)” value was determined as 29.6 mJ/cm^2. Also, in data set [2], the “CD (critical dimension)” value turned out to be 91.49 nm, the “E0 (dose to clear)” value is given as 9.6 mJ/cm^2, the “EL (exposure latitude)” value was 9.47% and the “Es (sizing energy)” value was 45.9 mJ/cm^2. Besides, in data set [2], the “LWR (line width roughness)” value is on record as 12.4 nm and the “MEF (mask error factor)” value came out at 3.45.
Take “4-(2-oxo-2-(2,2,2′,2′-tetramethyl-4,4′-bis(1,3-dioxolan)-5-yl-methoxyethoxy)phenyl)diphenylsulfonium 1-adamantyl-3,3,4,4-tetrafluorobutane sulfonate [PAG-A1]”: in data set [2], the “CD (critical dimension)” value came out at 91.27 nm, the “E0 (dose to clear)” value stood at 10.0 mJ/cm^2, the “EL (exposure latitude)” value worked out at 8.64% and the “Es (sizing energy)” value was found to be 48.0 mJ/cm^2. For the same molecule, in data set [2], the “LWR (line width roughness)” value turned out to be 12.8 nm and the “MEF (mask error factor)” value is listed as 3.67.
Regarding `CC1(C)OCC(C2OC(C)(C)OC2COC(=O)COc2ccc([S+](c3ccccc3)c3ccccc3)cc2)O1.O=C(OCC12CC3CC(CC(O)(C3)C1)C2)C(F)(F)S(=O)(=O)[O-]` (stereo not drawn) [PAG-A2, 4-(2-oxo-2-(2,2,2′,2′-tetramethyl-4,4′-bis(1,3-dioxolan)-5-yl-methoxyethoxy)phenyl)diphenylsulfonium 1,1-difluoro-2-(3-hydroxyadamantan-1-yl-methoxy)-2-oxoethanesulfonate], in data set [1], the “CDU (Critical Dimension Uniformity)” value was found to be 6.42 nm, the “EL (exposure latitude)” value came to 9.9% and the “Es (optimum energy to print 60/90 nm contact holes)” value was found to be 40.1 mJ/cm^2. In addition, in data set [2], the “CD (critical dimension)” value stood at 91.41 nm, the “E0 (dose to clear)” value came out at 17.4 mJ/cm^2, the “EL (exposure latitude)” value stood at 8.10% and the “Es (sizing energy)” value came out at 67.0 mJ/cm^2. Besides, in data set [2], the “LWR (line width roughness)” value was 13.2 nm and the “MEF (mask error factor)” value was 3.53.
For the molecule “Triphenylsulfonium perfluorobutanesulfonate [C. PAG 1, reference compound]”, in data set [2], the “CD (critical dimension)” value was 91.62 nm, the “E0 (dose to clear)” value is reported as 5.6 mJ/cm^2, the “EL (exposure latitude)” value came out at 6.99% and the “Es (sizing energy)” value was 24.6 mJ/cm^2. In data set [2], the “LWR (line width roughness)” value came out at 12.0 nm and the “MEF (mask error factor)” value stood at 4.04.
